Experimental findings from PMC11237798 are described below.

By UniProt entry, the sequences of proteins in these tests, tags left out. Where a name states a change or a piece, a line headed by the entry shows the natural chain unless it says otherwise.
UniProt Q9HX42: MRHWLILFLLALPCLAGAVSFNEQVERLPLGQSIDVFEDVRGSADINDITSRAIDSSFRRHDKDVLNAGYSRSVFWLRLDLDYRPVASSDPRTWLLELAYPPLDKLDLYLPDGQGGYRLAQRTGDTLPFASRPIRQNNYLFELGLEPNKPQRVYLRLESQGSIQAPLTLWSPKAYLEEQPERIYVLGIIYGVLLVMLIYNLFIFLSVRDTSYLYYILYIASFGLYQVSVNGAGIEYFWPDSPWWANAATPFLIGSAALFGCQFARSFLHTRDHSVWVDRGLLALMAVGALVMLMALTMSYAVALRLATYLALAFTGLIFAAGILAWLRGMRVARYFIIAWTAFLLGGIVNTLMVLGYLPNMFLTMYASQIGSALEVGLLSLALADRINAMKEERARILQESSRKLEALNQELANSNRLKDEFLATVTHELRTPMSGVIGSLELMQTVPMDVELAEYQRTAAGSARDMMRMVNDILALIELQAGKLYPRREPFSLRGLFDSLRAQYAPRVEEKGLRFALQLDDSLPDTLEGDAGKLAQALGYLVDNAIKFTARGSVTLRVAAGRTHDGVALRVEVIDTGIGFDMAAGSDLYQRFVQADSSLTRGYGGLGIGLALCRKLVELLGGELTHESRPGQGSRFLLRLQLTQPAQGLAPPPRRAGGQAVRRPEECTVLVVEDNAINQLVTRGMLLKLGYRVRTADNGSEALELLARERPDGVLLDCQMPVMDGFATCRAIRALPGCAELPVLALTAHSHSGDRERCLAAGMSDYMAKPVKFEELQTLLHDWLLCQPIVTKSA

The assay deals with T1, Flag tagged PA0034 (two-component response regulator) (Pseudomonas aeruginosa PAO1) (UniProt P24908).
T1 sequence: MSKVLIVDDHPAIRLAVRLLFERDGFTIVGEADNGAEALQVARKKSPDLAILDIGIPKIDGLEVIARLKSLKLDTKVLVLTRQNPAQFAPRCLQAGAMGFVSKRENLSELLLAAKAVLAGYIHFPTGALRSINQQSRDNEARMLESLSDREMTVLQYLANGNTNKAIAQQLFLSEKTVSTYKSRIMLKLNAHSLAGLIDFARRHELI
Put plainly: co-IP; co-IP of flag-PA0034 and HA-LadS, detected by western blotting; which of the two was precipitated is not told.

Results are given in words; binding and its absence hold for the method and conditions named. In cells and extracts the contact can be indirect. Binding can be weak; no strength is given. Tags and fused reporters may be left off the sequences shown.

On to HA-LadS (from UniProt Q9HX42) (enzyme), for which the binding entry was “binds”.
